Experimental data as given in article PMC9880323.
Results are given in words; binding and its absence hold for the method and conditions named.

Target: soluble p67C (Theileria parva (Muguga)) (UniProt Q4MZ78)
Test: SEC; preparative size exclusion chromatography of s-p67C alone; both purified

Substance: soluble p67C (from UniProt Q4MZ78 572-651) (domain or fragment)
- binding: no binding
